Measurements reported in publication PMC6474811.
These are yes or no findings as the source states them, for the method shown. In cells and extracts the contact can be indirect. Some entries that bind do so weakly or less than the wild type.

Protein sequences, listed by entry. Tags and fused reporters are not part of them.
UniProt Q9UKA9: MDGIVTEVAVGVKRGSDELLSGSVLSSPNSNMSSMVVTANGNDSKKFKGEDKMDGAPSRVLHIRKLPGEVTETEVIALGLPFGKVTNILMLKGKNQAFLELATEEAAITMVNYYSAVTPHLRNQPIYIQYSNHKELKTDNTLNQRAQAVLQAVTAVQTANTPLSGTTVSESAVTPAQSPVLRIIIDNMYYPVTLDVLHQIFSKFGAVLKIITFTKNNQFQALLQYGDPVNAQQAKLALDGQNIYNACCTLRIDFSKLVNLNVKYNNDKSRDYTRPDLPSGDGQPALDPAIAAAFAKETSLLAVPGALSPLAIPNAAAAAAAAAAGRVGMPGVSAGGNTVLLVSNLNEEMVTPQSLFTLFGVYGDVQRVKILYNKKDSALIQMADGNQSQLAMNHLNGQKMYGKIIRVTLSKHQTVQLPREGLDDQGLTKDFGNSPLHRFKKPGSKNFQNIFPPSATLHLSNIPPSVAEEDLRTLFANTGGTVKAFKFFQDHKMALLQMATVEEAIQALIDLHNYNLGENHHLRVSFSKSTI

Molecular target: T1, NOVA1 (human) (UniProt P51513)
T1 sequence: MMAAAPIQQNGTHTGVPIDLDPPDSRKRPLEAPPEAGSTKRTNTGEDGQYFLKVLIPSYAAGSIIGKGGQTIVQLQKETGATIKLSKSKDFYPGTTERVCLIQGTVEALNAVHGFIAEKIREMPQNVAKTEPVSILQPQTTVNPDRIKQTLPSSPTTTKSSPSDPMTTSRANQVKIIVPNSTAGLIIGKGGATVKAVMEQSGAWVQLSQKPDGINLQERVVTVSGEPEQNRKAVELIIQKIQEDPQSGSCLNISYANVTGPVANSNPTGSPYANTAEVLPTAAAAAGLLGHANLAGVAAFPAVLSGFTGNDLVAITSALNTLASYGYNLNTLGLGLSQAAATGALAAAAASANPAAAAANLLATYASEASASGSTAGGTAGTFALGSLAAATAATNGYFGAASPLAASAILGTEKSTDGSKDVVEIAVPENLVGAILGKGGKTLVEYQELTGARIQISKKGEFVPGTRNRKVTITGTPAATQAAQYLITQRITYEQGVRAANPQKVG
Assay: co-IP; Co-IP 'in humans' (human cells); bait, cell line and conditions are not told in the text shown (Supplementary Figure 2)

## PTBP2 (from UniProt Q9UKA9 1-531)
  binding: binds
